# Experimental data reported in the supplement of paper PMC3047530.
# “And” between values parts separate entries of the source, which are not always exact repeats. Identical values can stand only once. The list shows a part of the results. Many values rest on one well or one pass, so single values are uncertain.
# Test system: Geomyces destructans
# Assay: growth inhibition relative to DMSO control; higher = stronger growth inhibition
# Conditions: 10 µM; 15 °C; incubation time 10 days
row,Structure (SMILES),growth inhibition
1,O=C(OCc1ccccc1)c1ccccc1,-1.27%
2,CC(=O)O[C@@H]1C[C@H]2C(C)(C)CCC(=O)[C@]2(C)[C@H]2CC[C@@]3(C)[C@H](c4ccoc4)OC(=O)[C@H]4O[C@]43[C@@]21C,16.6%
3,CN(C)CCOC(=O)COc1ccc(Cl)cc1,5.83%
4,Cc1cc(O)c(C=O)c2c1C(=O)Oc1c(COC(=O)/C=C/C(=O)O)c(O)c(C(=O)O)c(C)c1O2,1.15%
5,Cc1cc(=O)c2c(O)c3c(cc2o1)OC(C)(C)CC3,4.1%
6,COC(=O)C[C@H]1C(C)(C)C(=O)[C@H]2CC3=C4CC(OC)O[C@@H](c5ccoc5)[C@@]4(C)CCC3[C@]1(C)C2=O (stereo partly drawn),0.78%
7,COC(=O)C(N)CS (stereo not drawn),-12.8%
8,CC(=O)OC1CCC2(O)CC1(C)CCC1C2CC1(C)C (stereo not drawn),0.773%
9,CC1(C)CC[C@]2(C(=O)O)[C@H](O)C[C@]3(C)C(=CC[C@@H]4[C@@]5(C)CC[C@H](O)C(C)(C)[C@@H]5CC[C@]43C)[C@H]2C1,-4.24%
10,Nc1cc(-c2ccncc2)c[nH]c1=O,-26.1%
11,CN(CCOc1ccc(CC2SC(=O)NC2=O)cc1)c1ccccn1 (stereo not drawn),-23.8%
12,CN(C)CC[C@@H](c1ccc(Cl)cc1)c1ccccn1,-10.9%
13,COC(=O)[C@@H]1OC(=O)C2OC23[C@@]1(C)CCC1[C@@]2(C)CCC(=O)C(C)(C)C2C[C@@H](OC(C)=O)[C@]13C (stereo partly drawn),2.6%
14,Cn1c([N+](=O)[O-])cnc1COC(N)=O,4.82%
15,Nc1nc2ncc(C(=O)O)nc2c(=O)[nH]1,-12.3%
16,CCCCCCCCCCCCCCCCCC(=O)OC(CC(=O)O)C[N+](C)(C)C (stereo not drawn),-16.7%
17,CN(C)[C@@H]1C(O)=C(C(N)=O)C(=O)[C@@]2(O)C(O)=C3C(=O)c4c(O)ccc(Cl)c4[C@@H](O)[C@H]3C[C@@H]12,-2.62%
18,OC[C@H]1O[C@@H](O[C@@H]2[C@@H](CO)OC(O)(CO)[C@H]2O)[C@H](O)[C@@H](O)[C@H]1O (mixture of isomers),-4.5%
19,C[C@@H]1CC[C@@]2(OC1)O[C@H]1C[C@H]3[C@@H]4CC[C@@H]5C[C@@H](O)CC[C@]5(C)[C@H]4CC[C@]3(C)[C@H]1[C@@H]2C,4.17%
20,O=C(O)c1cc(O)c2ccc(Cl)cc2n1,0.462%
21,COc1ccc(-c2cc(C(F)F)nn2-c2ccc(S(N)(=O)=O)cc2)cc1F,-28.7%
22,CC(Oc1ccccc1)C(=O)N[C@@H]1C(=O)N2[C@@H]1SC(C)(C)[C@@H]2C(=O)O (stereo partly drawn),-29.7%

row,Structure (SMILES),growth inhibition
1,N[C@@H](C(=O)N[C@@H]1C(=O)N2C(C(=O)O)=C(Cl)CS[C@H]12)c1ccccc1,-9.92%
2,C[C@H](CCC(=O)O)[C@H]1CC[C@H]2[C@@H]3CC[C@@H]4CCCC[C@]4(C)[C@H]3CC[C@]12C,-5.41%
3,N=C(N)NC(=O)c1nc(Cl)c(N2CCCCCC2)nc1N,-39.4%
4,OCC(O)C(O)C(O)C(O)C(O)CO (stereo not drawn),-4.48%
5,COc1cc(O)c(C)c(O)c1,-0.882%
6,Cn1nnnc1SCC1=C(C(=O)O)N2C(=O)[C@@H](NC(=O)[C@H](OC=O)c3ccccc3)[C@H]2SC1,-1.9%
7,CCOC(=O)[C@H](CCc1ccccc1)N[C@@H](C)C(=O)N1CCC[C@H]1C(=O)O,-6.38%
8,CCc1cccc2c3c([nH]c12)C(CC)(CC(=O)O)OCC3 (stereo not drawn),-20.4%
9,Cc1noc(NS(=O)(=O)c2ccc(N)cc2)c1C,5.52%
10,CO[C@H]1C=C[C@@]23c4cc5c(cc4CN(C[C@@H]2O)[C@H]3C1)OCO5,-12%
11,CN(C)CCCO[C@@H]1[C@H]2OC(C)(C)O[C@H]2O[C@@H]1[C@H](O)CO,-41.4%
12,C[C@]12CC[C@@H]3c4ccc(O)cc4CC[C@H]3[C@@H]1C[C@@H](O)[C@@H]2O,67.9%
13,CCOc1ccc(C(=O)c2ccc(O)c(O)c2O)cc1,11.2%
14,CC1=C(CC(=O)O)c2cc(F)ccc2/C1=C\c1ccc([S+](C)[O-])cc1 (stereo not drawn),-24.2%
15,COc1ccc(-c2coc3c(OC)c(OC)cc(O)c3c2=O)cc1,-15.3%
16,COc1ccc(C(=O)c2ccc(O)cc2)c(O)c1O,-0.366%
17,CC(C)CCC[C@@H](C)[C@H]1CC[C@H]2[C@@H]3C(=O)C=C4C[C@@H](O)CC[C@]4(C)[C@H]3CC[C@]12C,13.2%
18,Cc1ccccc1N1C(=O)c2cc(S(N)(=O)=O)c(Cl)cc2NC1C (stereo not drawn),-18.5%
19,CO[C@H]1[C@H](O)[C@@H](O)[C@H](O)[C@H](O)[C@H]1O,-11.7%
20,OCCOCCN1CCN(C(c2ccccc2)c2ccc(Cl)cc2)CC1 (stereo not drawn),4.36%
21,CC(CCC(=O)O)[C@H]1CCC2C3CC[C@@H]4CC(=O)CC[C@]4(C)C3C=C[C@@]21C (stereo partly drawn),2.37%
22,CC(=O)O[C@H]1C[C@@H](OC(C)=O)C(C)(C)C2C[C@@H](O)[C@]3(C)C(CC[C@@]4(C)[C@H](c5ccoc5)OC(=O)[C@H]5O[C@]543)[C@]21C (stereo partly drawn),-10.4%

row,Structure (SMILES),growth inhibition
1,COc1ccc2c(c1)OCC(Cc1ccc(OC)c(OC(C)=O)c1)C2=O (stereo not drawn),23.4%
2,C[C@H](C[C@@H](O)[C@@H]1OC1(C)C)[C@@H]1CC[C@]2(C)C3=CC[C@H]4C(C)(C)C(=O)CC[C@]4(C)[C@H]3CC[C@@]12C,-6.96%
3,"COC(=O)[C@@H]1OC(=O)C2OC23[C@@]1(C)CCC1[C@]2(C)C(C[C@H](O)[C@]13C)C(C)(C)[C@H](OC(C)=O)C[C@@H]2OC(C)=O (stereo partly drawn) [7beta-HYDROXY-7-DESACETOXYKHIVORINIC ACID, METHYL ESTER]",0.78%
4,CC(=O)Nc1ccc(O)cc1,-39.9%
5,CC(=O)Oc1c(C)c(C)c2c(c1C)CCC(C)(CCCC(C)CCCC(C)CCCC(C)C)O2 (stereo not drawn) [alpha-TOCHOPHERYL ACETATE],-35.9%
6,NCCCC(N)C(=O)O (stereo not drawn),12.1%
7,CCCCC(CC)CN=C(N)N=C(N)NCCCCCCNC(N)=NC(N)=NCC(CC)CCCC (stereo not drawn),88.8%
8,COC(=O)C(C)c1ccc(C(=O)c2cccs2)cc1 (stereo not drawn),-28.4%
9,CN(C)[C@@H]1C(O)=C(C(N)=O)C(=O)[C@@]2(O)C(O)=C3C(=O)c4c(O)ccc(Cl)c4[C@@](C)(O)[C@H]3C[C@@H]12,-5.23% and 16.5%
10,CC(=O)OCC1=C(C(=O)O)N2C(=O)[C@@H](NC(=O)CSc3ccncc3)[C@H]2SC1,1.62%
11,Cc1cc(=O)c2c(O)c(C)c(O)cc2o1,-17.9%
12,C[C@]12CC[C@@H]3c4ccc(O)cc4CC[C@H]3[C@@H]1CCC2=O,8.79%
13,CC(=O)OC1CCC2(C)C3=C(CC[C@H]2C1(C)C)[C@@]1(C)CC[C@@H]([C@@H](C)CCC=C(C)C)[C@]1(C)CC3 (stereo partly drawn),-3.33%
14,CC(=O)OCC(=O)[C@@]1(O)CC[C@H]2[C@@H]3C[C@H](C)C4=CC(=O)C=C[C@]4(C)[C@H]3[C@@H](O)C[C@@]21C [6alpha-METHYLPREDNISOLONE ACETATE],-17.2%
15,CCOC(=O)C1=C[C@]2(CC)CCCN3CCc4c(n1c1ccccc41)[C@@H]32,-7.71%
16,CC(=O)c1cc2c(cc1O)OC(C)(C)C=C2,-16%
17,COc1cnc(NS(=O)(=O)c2ccc(N)cc2)nc1,0.5%
18,O=C(O)CCC(=O)Nc1ccc(S(=O)(=O)Nc2nccs2)cc1,-5.39%
19,Cc1cccc(CN2CCN(C(c3ccccc3)c3ccc(Cl)cc3)CC2)c1 (stereo not drawn),1.31%
20,C=C1C[C@]23C[C@@]1(O)CC[C@H]2[C@@]12C=C[C@H](O)[C@@](C)(C(=O)O1)[C@H]2[C@@H]3C(=O)O,-21.5%
21,COC(=O)c1c(OC)cc2c(c1C)Oc1c(Cl)c(OC(C)=O)c(Cl)c(C)c1C(=O)O2,-2.68%
22,COc1cc(O)cc(/C=C/c2ccccc2)c1,24.7%

row,Structure (SMILES),growth inhibition
1,COc1ccc(-c2cc(=O)c3c(O)cc(O[C@@H]4O[C@H](CO[C@@H]5O[C@@H](C)[C@H](O)[C@@H](O)[C@H]5O)[C@@H](O)[C@H](O)[C@H]4O)cc3o2)cc1O,-1.21%
2,"COC(=O)C[C@H]1C(C)(C)[C@@H](O)[C@@H]2CC3=C4CC(O)O[C@@H](c5ccoc5)[C@]4(C)CCC3[C@@]1(C)C2=O (stereo partly drawn) [3,16-DIDEOXYMEXICANOLIDE-3beta-DIOL]",-2.38%
3,CC(=O)Oc1cc2c(c(C)c1OC(C)=O)CC1OC13[C@@]2(C)CC[C@@]1(C)C2C[C@](C)(C(=O)O)CC[C@]2(C)CC[C@]31C (stereo partly drawn),6.09%
4,NC(=O)NC(=O)Cc1ccccc1,-16.2%
5,COc1cc(C)c(C(=O)Oc2cc(C)c(C(=O)O)c(O)c2C)c(O)c1C=O,7.71%
6,c1ccc2[nH]c(-c3cscn3)nc2c1,-5.57%
7,CN1[C@@H](CC(=O)c2ccccc2)CCC[C@H]1C[C@H](O)c1ccccc1,-1.6%
8,C=C1C(=O)O[C@@H]2C[C@@]3(C)CCC[C@H](C)C3=C[C@H]12,-36.1%
9,CC(C)(OC(=O)c1ccccc1)[C@@H]1Cc2cc3ccc(=O)oc3cc2O1,-6.19%
10,"CC1CCC(C(C)C)C(O)C1 (single isomer, unassigned; (-))",-7.71%
11,CNCCC(Oc1ccc(C(F)(F)F)cc1)c1ccccc1 (stereo not drawn),-22.5%
12,COc1ccc(C(=O)/C=C/c2ccccc2)cc1,5.74%
13,"C=C1C2CCC3(C)C(c4ccoc4)OC(=O)CC13OC1CC(OC(C)=O)C(C)(C)C(CC(=O)OC)C12C (stereo not drawn) [3beta-ACETOXYDEOXYANGOLENSIC ACID, METHYL ESTER]",-8.54%
14,CCCCCCCCCCCCC[N+](C)(C)Cc1ccccc1,86.3%
15,O=S(=O)(O)CCS,-3.31%
16,CCn1cc(C(=O)O)c(=O)c2cnc(N3CCCC3)nc21,-7.18%
17,CC(=O)[C@H]1CC[C@H]2[C@@H]3C[C@H](C)C4=CC(=O)CC[C@]4(C)[C@H]3[C@@H](O)C[C@]12C,-2.05%
18,O[C@H]1[C@H]2c3cc4c(cc3CN3CCC(=C[C@@H]1O)[C@H]23)OCO4,-3.8%
19,CCCCNC(=O)NS(=O)(=O)c1ccc(C)cc1,-11.9%
20,O=C(O)c1cc(-c2ccc(F)cc2F)ccc1O,17.7%
21,COC(=O)[C@@H]1[C@H]2C[C@H]3c4[nH]c5ccccc5c4CCN3C[C@@H]2CC[C@@H]1O,-33.6%
22,C=C(C)[C@@H]1CC=C(C(=O)O)CC1,41%
